{
  "source": "patent US20240287005A1",
  "about": "“ISOXAZOLINE PESTICIDES” (Elanco Tiergesundheit AG, priority 2021, published 2024)",
  "key": {"Ctenocephalides felis [1]": {"system": "Ctenocephalides felis", "test": "In vitro evaluation of ingestion activity against adult cat fleas", "conditions": "adult cat fleas fed test substance in citrated cattle blood through parafilm membrane, after 48 hours"}, "Ctenocephalides felis [2]": {"system": "Ctenocephalides felis", "test": "In vitro evaluation of contact activity against adult cat fleas", "conditions": "adult fleas in coated glass vial, after 48 h", "procedure": "In vitro contact tests with […] are conducted with adult males and females of Ctenocephalides felis. For the coating of the test vials, the test substance is dissolved and diluted in acetone p.a. to the desired concentration. The solution is then homogeneously applied to the inner walls and base of a glass vial by turning and rocking on an orbital shaker until complete evaporation of the solvent. For example, with 900 ppm solution of test substance an area-based dose of 5 μg/cm^2 is achieved.\nAfter the solvent is completely evaporated, approximately 10 adult fleas are applied to each coated test vial, which is then sealed with a perforated plastic lid and incubated in a horizontal position in the dark at room temperature and ambient humidity. Insecticidal activity is determined after 48 h. Fleas which remain motionless on the base of the test vial or move uncoordinated without occasionally jumping or walking straight are considered dead or moribund, respectively. An insecticidal activity of 100% means all fleas were dead or moribund. An insecticidal activity of 0% means none of the fleas was affected. From a dose response curve the respective EC50 was calculated (4-parameter logistic curve fitting)."}, "[3]": {"system": "Rhipicephalus (Boophilus) microplus", "test": "In vitro evaluation of systemic activity against female engorged cattle ticks", "conditions": "1 μl injected into abdomen of engorged adult female ticks, assessed after 7 days"}, "Rhipicephalus microplus": {"system": "Rhipicephalus microplus", "test": "In vitro evaluation of contact activity against larval cattle ticks", "conditions": "larval ticks in coated glass vial, after 48 h"}},
  "note": "Some of these results come from one statement about several compounds together.",
  "data": [
    {"smiles": "Cc1cc(C2=NO[C@@](c3cc(C(F)(F)F)cc(Br)c3F)(C(F)(F)F)C2)ccc1C(=O)N[C@H]1CON(S(C)(=O)=O)C1", "note": "(relative stereo) [Example 1.3, 4-(rel-(S)-5-(3-bromo-2-fluoro-5-(trifluoromethyl)phenyl)-5-(trifluoromethyl)-4,5-dihydro-isoxazol-3-yl)-2-methyl-N-(rel-(S)-2-(methylsulfonyl)isox-azolidin-4-yl)benzamide]", "values": [
      {"measurement": "EC50 insecticidal activity (fleas killed or moribund)", "setting": "Ctenocephalides felis [1]", "value": "< 20", "unit": "ppm"},
      {"measurement": "EC50 insecticidal activity (fleas dead or moribund)", "setting": "Ctenocephalides felis [2]", "value": "< 0.1", "unit": "μg/cm^2"}
    ]},
    {"smiles": "Cc1cc(C2=NO[C@@](c3cc(C(F)(F)F)cc(Cl)c3F)(C(F)(F)F)C2)ccc1C(=O)N[C@H]1C[C@H](C(=O)O)C1", "note": "(relative stereo) [Example 2.2, trans-3-(4-((S*)-5-(3-chloro-2-fluoro-5-trifluoromethyl)phen-yl)-5-(trifluoromethyl)-4,5-dihydroisoxazol-3-yl)-2-meth-ylbenzamido)cyclobutane-1-carboxylic acid]", "values": [
      {"measurement": "EC50 acaricidal activity (no eggs or infertile eggs laid)", "setting": "[3]", "value": "< 10", "unit": "μg/tick"}
    ]},
    {"smiles": "Cc1cc(C2=NO[C@@](c3cc(C(F)(F)F)cc(Cl)c3F)(C(F)(F)F)C2)ccc1C(=O)N[C@H]1C[C@@H](C(=O)O)C1", "note": "(relative stereo) [Example 2.1, cis-3-(4-((S*)-5-(3-chloro-2-fluoro-5-trifluoromethyl)phen-yl)-5-(trifluoromethyl)-4,5-dihydroisoxazol-3-yl)-2-meth-ylbenzamido)cyclobutane-1-carboxylic acid]", "values": [
      {"measurement": "EC50 acaricidal activity (no eggs or infertile eggs laid)", "setting": "[3]", "value": "< 10", "unit": "μg/tick"}
    ]},
    {"smiles": "CCN1C[C@@H](NC(=O)c2ccc(C3=NOC(c4cc(C(F)(F)F)cc(Br)c4F)(C(F)(F)F)C3)cc2C)CC1=O", "note": "(single isomer, unassigned) [Example 1.1, 4-((R*)-5-(3-bromo-2-fluoro-5-(trifluoromethyl)phenyl)-5-(trifluoromethyl)-4,5-dihydroisoxazol-3-yl)-N—((S)-1-ethyl-5-oxopyrrolidin-3-yl)-2-methylbenzamide]", "values": [
      {"measurement": "EC50 acaricidal activity (tick larvae dead or moribund)", "setting": "Rhipicephalus microplus", "value": "< 0.1", "unit": "μg/cm^2"},
      {"measurement": "EC50 insecticidal activity (fleas dead or moribund)", "setting": "Ctenocephalides felis [2]", "value": "< 0.1", "unit": "μg/cm^2"}
    ]},
    {"smiles": "Cc1cc(C2=NO[C@@](c3cc(C(F)(F)F)cc(Br)c3F)(C(F)(F)F)C2)ccc1C(=O)N[C@@H]1CON(S(C)(=O)=O)C1", "note": "(relative stereo) [Example 1.4, 4-(rel-(S)-5-(3-bromo-2-fluoro-5-(trifluoromethyl)phenyl)-5-(trifluoromethyl)-4,5-dihydro-isoxazol-3-yl)-2-methyl-N-(rel-(R)-2-(methylsulfonyl)isox-azolidin-4-yl)benzamide]", "values": [
      {"measurement": "EC50 insecticidal activity (fleas killed or moribund)", "setting": "Ctenocephalides felis [1]", "value": "< 20", "unit": "ppm"},
      {"measurement": "EC50 acaricidal activity (tick larvae dead or moribund)", "setting": "Rhipicephalus microplus", "value": "< 0.1", "unit": "μg/cm^2"},
      {"measurement": "EC50 insecticidal activity (fleas dead or moribund)", "setting": "Ctenocephalides felis [2]", "value": "< 0.1", "unit": "μg/cm^2"}
    ]}
  ]
}
